# Results from one PubChem assay

The results are deposited in PubChem (AID912; NCATS, 2007).

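Uptake of anthrax lethal toxin into cultured cells, read by FRET (460/530 nm ratio) and reported from the 460 nm channel; the cell line is not named here.
Each compound was tested as a concentration series from about 0.0005 to 40 µM.
The number is the fitted AC50 of the 460 nm signal alone; lower values mean a more potent effect. A falling signal goes with compounds filed as inhibitors or cytotoxic, a rising one with activators or fluorescent compounds (inferred from the filed classes).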

Values are in nM.
Common to all entries: measured here: 460 nm channel.
This is a side read-out of the assay, for part of the compounds, not drawn at random.
A potency from a partial, single-point or poor curve is only a rough figure.
The first word of each remark tells which way the curve ran; it can be opposite to the aim of the assay.

Compound,AC50 (nM),remark
CC(C)CNC(=O)CN(C1CCCCC1)S(C)(=O)=O,1995,"rising, partial curve"
Cc1nc2ccccc2c2oc(C(=O)NCCCN3CCC(C)CC3)cc12,6310,"falling, partial curve"
CCN1CCN(C(=O)Nc2ccc(Cc3ccc(NC(=O)N4CCN(CC)CC4)cc3)cc2)CC1,10000,"falling, single point"
Cc1ccccc1C1CC(c2ccc(F)cc2)Nc2nc(N)nn21 (stereo not shown),25118,"rising, single point"
N#CC(C#N)=NNc1cccc(Cl)c1,3162,"falling, full curve"
Cc1ccc(S(=O)(=O)N[C@@H](Cc2ccccc2)C(=O)CCl)cc1,19952,"falling, partial curve, poor fit"
Cc1ccc(S(=O)(=O)NC(=O)OC23COCN2COC3)cc1,39.81,"falling, full curve, poor fit"
CC(C)(C)c1cc(Br)ccc1OCC(=O)Nc1ncn[nH]1,7943,"falling, partial curve"
c1ccc(-c2nnc(N3CCN(c4ccccn4)CC3)c3ccccc23)cc1,12589,"falling, single point"
CCc1nc2ccccc2n1Cc1ccccc1OC,3.162,"falling, full curve"
N=c1c(C(=O)NCC2CCCO2)cc2c(=O)n3ccccc3nc2n1Cc1cccnc1 (stereo not shown),10000,"rising, partial curve"
COc1cc(NC(=O)Nc2ccccc2)c(OC)cc1NC(=O)CN1CCCCC1,15848,"falling, partial curve, poor fit"
COC(=O)c1ccc(NC(=O)Cn2nnc3ccccc32)cc1,5012,"rising, single point"
c1ccc(C(NCCNC(c2ccccc2)c2ccccc2)c2ccccc2)cc1,12589,"falling, partial curve"
COC(=O)Cn1c(C(=O)N2CCCC2)cc2c1C[C@H]1CN(C(=O)c3ccccc3)[C@@](Cc3ccc(F)cc3)(C(=O)OC)[C@@H]21,10000,"rising, partial curve"
COc1cccc(NC(=O)CSc2nc3ccccc3c(=O)n2CCCC(=O)N2CCCC2)c1,10000,"rising, partial curve"
CN1CC(=O)NC1=NC(=O)c1cc(F)c(F)cc1Cl,5012,"rising, partial curve, poor fit"
O=C1c2ccccc2C(=O)N1CCCCN(C(=O)c1ccco1)c1ccc(Cl)cc1,31622,"falling, single point"
O=c1cc(-c2ccccc2)oc2c1ccc1ccccc12,25118,"falling, partial curve"
CCN(CC)C(=O)Oc1ccc2c(=O)c(-c3ccc(OC)cc3)c(C)oc2c1,5012,"falling, partial curve"
COCCNC(=O)Cc1ccc(Br)cc1,7.943,"falling, full curve"
COc1cc([C@@H]2Oc3cc([C@H]4Oc5cc(O)cc(O)c5C(=O)[C@H]4O)ccc3O[C@H]2CO)ccc1O,12589,"falling, single point"
NC(=O)c1ccsc1NC(=O)c1nc(-c2ccccc2)n(-c2ccccc2)n1,7943,"falling, partial curve"
CCC(Sc1nc2sc(C(=O)OC)c(C)c2c(=O)n1N)C(=O)NCC1CCCO1 (stereo not shown),5012,"rising, single point"
O=S(=O)(c1cccc2cnccc12)N1CCCNCC1,12589,"falling, single point"
O=S(=O)(NC1CCCCC1)c1cccc(-c2nnc(-c3ccccc3)o2)c1,31622,"falling, single point"
Cc1ccc(/C(C#N)=C\c2cn(C)c3ccccc23)cc1,5012,"falling, partial curve"
O=C(NC1CCCc2ccccc21)C1CCN(c2nnc(-n3cccc3)s2)CC1 (stereo not shown),31622,"falling, single point"
CCn1c(SCC(=O)Nc2ccccc2C)nnc1-c1ccccc1O,1585,"rising, partial curve"
C=Cn1c(P(=S)(N2CCOCC2)N2CCOCC2)cc2c1CCCC2,10000,"falling, partial curve"
Cc1cc2nc3c(=O)[nH]c(=O)nc-3n(CC(O)C(O)C(O)CO)c2cc1C (stereo not shown),125.9,"rising, full curve, poor fit"

3 of the entries, repeated:

| Compound | AC50 (nM) | remark |
|---|---|---|
| `N#CC(C#N)=NNc1cccc(Cl)c1` | 3162 | falling, full curve |
| `CC(C)CNC(=O)CN(C1CCCCC1)S(C)(=O)=O` | 1995 | rising, partial curve |
| `CCC(Sc1nc2sc(C(=O)OC)c(C)c2c(=O)n1N)C(=O)NCC1CCCO1` (stereo not shown) | 5012 | rising, single point |